Source: paper PMC13080232
These are yes or no findings as the source states them, for the method shown. In cells and extracts the contact can be indirect. These calls come from enrichment with a bait or labelling near it, and not all partners need be listed. For part of these data: Sequences can lack the tags named with a protein.

T1: CD9:TurboID fusion protein (human), P21926
T1 chain: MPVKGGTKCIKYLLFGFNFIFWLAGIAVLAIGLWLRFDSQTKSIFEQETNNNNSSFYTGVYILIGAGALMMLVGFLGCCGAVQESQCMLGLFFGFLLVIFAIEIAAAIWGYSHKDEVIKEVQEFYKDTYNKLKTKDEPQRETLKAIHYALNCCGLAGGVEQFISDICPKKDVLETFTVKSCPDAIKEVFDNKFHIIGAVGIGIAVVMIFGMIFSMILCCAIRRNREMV


Tests used:
[1] = molecular target: CD9:TurboID fusion protein (human) (UniProt P21926); assay: proximity labelling; CD9:TurboID-V5 stably expressed in CD9-/- A549 cells; 50 μM biotin for 30, 60 or 240 min; cells uninfected or infected with N. meningitidis MC58 or S. aureus SH1000 (MOI = 50); RIPA lysis, streptavidin bead pull-down, on-bead digestion, LC-MS/MS with LFQ; enrichment against cytosolic TurboID (FDR 0.01, s0 = 2), infected against uninfected (FDR 0.05, s0 = 0.1)
[2] = molecular target: T1, CD9:TurboID fusion protein (human), …; assay: as above; conditions: remark: other sources report otherwise

binding [1] | binding [2] | Binder
binds | – | CD151 (protein, UniProt P48509 1-253) MGEFNEKKTTCGTVCLKYLLFTYNCCFWLAGLAVMAVGIWTLALKSDYISLLASGTYLATAYILVVAGTVVMVTGVLGCCATFKERRNLLRLYFILLLIIFLLEIIAGILAYAYYQQLNTELKENLKDTMTKRYHQPGHEAVTSAVDQLQQEFHCCGSNNSQDWRDSEWIRSQEAGGRVVPDSCCKTVVALCGQRDHASNIYKVEGGCITKLETFIQEHLRVIGAVGIGIACVQVFGMIFTCCLYRSLKLEHY
binds | – | immunoglobulin superfamily 3 (protein, UniProt O75054 20-1194) QRQVTVQEGPLYRTEGSHITIWCNVSGYQGPSEQNFQWSIYLPSSPEREVQIVSTMDSSFPYAIYTQRVRGGKIFIERVQGNSTLLHITDLQARDAGEYECHTPSTDKQYFGSYSAKMNLVVIPDSLQTTAMPQTLHRVEQDPLELTCEVASETIQHSHLSVAWLRQKVGEKPVEVISLSRDFMLHSSSEYAQRQSLGEVRLDKLGRTTFRLTIFHLQPSDQGEFYCEAAEWIQDPDGSWYAMTRKRSEGAVVNVQPTDKEFTVRLETEKRLHTVGEPVEFRCILEAQNVPDRYFAVSWAFNSSLIATMGPNAVPVLNSEFAHREARGQLKVAKESDSVFVLKIYHLRQEDSGKYNCRVTEREKTVTGEFIDKESKRPKNIPIIVLPLKSSISVEVASNASVILEGEDLRFSCSVRTAGRPQGRFSVIWQLVDRQNRRSNIMWLDRDGTVQPGSSYWERSSFGGVQMEQVQPNSFSLGIFNSRKEDEGQYECHVTEWVRAVDGEWQIVGERRASTPISITALEMGFAVTAISRTPGVTYSDSFDLQCIIKPHYPAWVPVSVTWRFQPVGTVEFHDLVTFTRDGGVQWGDRSSSFRTRTAIEKAESSNNVRLSISRASDTEAGKYQCVAELWRKNYNNTWTRLAERTSNLLEIRVLQPVTKLQVSKSKRTLTLVENKPIQLNCSVKSQTSQNSHFAVLWYVHKPSDADGKLILKTTHNSAFEYGTYAEEEGLRARLQFERHVSGGLFSLTVQRAEVSDSGSYYCHVEEWLLSPNYAWYKLAEEVSGRTEVTVKQPDSRLRLSQAQGNLSVLETRQVQLECVVLNRTSITSQLMVEWFVWKPNHPERETVARLSRDATFHYGEQAAKNNLKGRLHLESPSPGVYRLFIQNVAVQDSGTYSCHVEEWLPSPSGMWYKRAEDTAGQTALTVMRPDASLQVDTVVPNATVSEKAAFQLDCSIVSRSSQDSRFAVAWYSLRTKAGGKRSSPGLEEQEEEREEEEEEDDDDDDDPTERTALLSVGPDAVFGPEGSPWEGRLRFQRLSPVLYRLTVLQASPQDTGNYSCHVEEWLPSPQKEWYRLTEEESAPIGIRVLDTSPTLQSIICSNDALFYFVFFYPFPIFGILIITILLVRFKSRNSSKNSDGKNGVPLLWIKEPHLNYSPTCLEPPVLSIHPGAID
– | binds | CD9:TurboID fusion protein, P21926 1-228 (protein) MPVKGGTKCIKYLLFGFNFIFWLAGIAVLAIGLWLRFDSQTKSIFEQETNNNNSSFYTGVYILIGAGALMMLVGFLGCCGAVQESQCMLGLFFGFLLVIFAIEIAAAIWGYSHKDEVIKEVQEFYKDTYNKLKTKDEPQRETLKAIHYALNCCGLAGGVEQFISDICPKKDVLETFTVKSCPDAIKEVFDNKFHIIGAVGIGIAVVMIFGMIFSMILCCAIRRNREMV
